Laboratory results as given in patent EP1759709B1 (Elan Pharmaceuticals Inc., dated 2013).
These are yes or no findings as the source states them, for the method shown. Some entries that bind do so weakly or less than the wild type.

Chains of the proteins cited; added tags and fusions are not shown. Lines headed by an entry give the natural chain unless they say otherwise; changes in a name come on top.
UniProt P13612: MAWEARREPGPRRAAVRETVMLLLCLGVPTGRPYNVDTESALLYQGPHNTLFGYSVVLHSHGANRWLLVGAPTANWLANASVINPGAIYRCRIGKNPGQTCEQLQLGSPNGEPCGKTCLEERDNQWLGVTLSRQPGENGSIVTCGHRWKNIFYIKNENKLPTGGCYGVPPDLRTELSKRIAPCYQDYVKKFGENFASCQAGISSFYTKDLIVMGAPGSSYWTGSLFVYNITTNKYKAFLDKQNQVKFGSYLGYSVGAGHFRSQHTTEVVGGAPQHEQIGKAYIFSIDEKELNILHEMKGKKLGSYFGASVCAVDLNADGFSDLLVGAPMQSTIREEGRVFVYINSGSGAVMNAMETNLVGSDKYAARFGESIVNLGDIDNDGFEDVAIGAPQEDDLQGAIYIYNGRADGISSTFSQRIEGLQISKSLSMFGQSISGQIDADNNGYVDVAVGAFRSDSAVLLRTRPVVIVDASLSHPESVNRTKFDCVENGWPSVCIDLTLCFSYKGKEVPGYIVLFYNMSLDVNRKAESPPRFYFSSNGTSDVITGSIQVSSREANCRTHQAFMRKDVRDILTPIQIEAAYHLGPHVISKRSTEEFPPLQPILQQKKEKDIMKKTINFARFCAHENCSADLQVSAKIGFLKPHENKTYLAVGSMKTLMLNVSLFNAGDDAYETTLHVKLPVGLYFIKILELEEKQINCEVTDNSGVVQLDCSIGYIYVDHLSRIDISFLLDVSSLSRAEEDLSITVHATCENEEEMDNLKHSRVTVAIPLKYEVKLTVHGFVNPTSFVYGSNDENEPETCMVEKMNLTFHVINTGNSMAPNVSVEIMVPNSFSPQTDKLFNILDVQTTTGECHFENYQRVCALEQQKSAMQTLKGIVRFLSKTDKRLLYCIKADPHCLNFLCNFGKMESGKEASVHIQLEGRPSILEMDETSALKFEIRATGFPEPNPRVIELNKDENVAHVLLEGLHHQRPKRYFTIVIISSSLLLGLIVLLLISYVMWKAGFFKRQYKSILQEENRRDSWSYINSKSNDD
UniProt P05556: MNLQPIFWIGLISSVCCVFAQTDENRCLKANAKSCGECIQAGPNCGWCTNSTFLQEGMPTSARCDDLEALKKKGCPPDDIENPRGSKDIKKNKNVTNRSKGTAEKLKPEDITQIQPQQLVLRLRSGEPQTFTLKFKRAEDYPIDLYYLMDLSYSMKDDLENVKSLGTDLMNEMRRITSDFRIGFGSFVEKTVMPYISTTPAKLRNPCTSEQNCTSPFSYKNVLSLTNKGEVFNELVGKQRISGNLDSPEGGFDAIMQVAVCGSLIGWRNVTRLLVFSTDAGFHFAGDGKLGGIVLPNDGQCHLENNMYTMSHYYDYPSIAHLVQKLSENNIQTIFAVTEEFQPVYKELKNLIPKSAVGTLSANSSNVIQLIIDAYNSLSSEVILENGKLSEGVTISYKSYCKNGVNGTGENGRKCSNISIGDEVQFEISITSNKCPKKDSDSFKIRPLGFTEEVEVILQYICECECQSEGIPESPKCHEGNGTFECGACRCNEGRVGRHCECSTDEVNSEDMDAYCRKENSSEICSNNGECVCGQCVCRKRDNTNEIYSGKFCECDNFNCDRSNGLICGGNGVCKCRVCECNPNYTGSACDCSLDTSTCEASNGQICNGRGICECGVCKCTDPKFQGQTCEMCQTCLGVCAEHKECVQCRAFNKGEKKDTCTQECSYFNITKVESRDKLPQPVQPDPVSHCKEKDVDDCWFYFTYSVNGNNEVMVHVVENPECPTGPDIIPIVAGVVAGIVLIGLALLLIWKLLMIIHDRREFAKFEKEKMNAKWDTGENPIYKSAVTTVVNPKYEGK

Legend:
[1] = target: T1, human α4β1 integrin (human) (UniProt P13612+P05556); assay: ELISA on L cells expressing α4β1 integrin; crude supernatants
[2] = target: T1, human α4β1 integrin (human); assay: ELISA on L cells expressing human α4β1 integrin, in parallel with chimeric 21.6 antibody

binding [1]	binding [2]	Binder
binds		reshaped human 21.6 antibody (La + Hb) (antibody, V domains shown) VH: QVQLVQSGAEVKKPGASVKVSCKASGFNIKDTYIHWVRQAPGQGLEWMGRIDPANGYTKYDPKFQGRVTITADTSASTAYMELSSLRSEDTAVYYCAREGYYGNYGVYAMDYWGQGTLVTVSS VL: DIQMTQSPSSLSASVGDRVTITCKTSQDINKYMAWYQQTPGKAPRLLIHYTSALQPGIPSRFSGSGSGRDYTFTISSLQPEDIATYYCLQYDNLWTFGQGTKVEIK
	binds	reshaped human 21.6 antibody (La + Hc) (antibody, V domains shown) VH: QVQLVQSGAEVKKPGASVKVSCKASGFNIKDTYIHWVRQAPGQRLEWMGRIDPANGYTKYDPKFQGRVTITADTSASTAYMELSSLRSEDTAVYYCAREGYFGNYGVYAMDYWGQGTLVTVSS VL: DIQMTQSPSSLSASVGDRVTITCKTSQDINKYMAWYQQTPGKAPRLLIHYTSALQPGIPSRFSGSGSGRDYTFTISSLQPEDIATYYCLQYDNLWTFGQGTKVEIK
